Measured values taken from PMC12345401, “The mRNA Translation Inhibitor Vioprolide A Prevents Inflammatory Pain‐Like Behaviour With Limited Action on Already Established Pain‐Like Behaviour in Mice” (European Journal of Pain (London, England), 2025).
“Also recorded” adds a separate entry of the source.

Test system: NOP14
Experiment: Western blot of NOP14 in dorsal root ganglia after treatment
Type: in vivo, mouse
Conditions: 0.3 mg/kg s.c.; with or without intraplantar zymosan 16 h later; DRGs excised after a further 24 h

C/C=C1/NC(=O)[C@@H]2CSC(=N2)[C@@H]2C[C@@H](C)N2C(=O)[C@@H](CC(C)C)NC(=O)[C@H](C)NC(=O)[C@@H](O)COC(=O)[C@H](C(C)C)N(C)C(=O)[C@H]([C@@H](C)O)NC(=O)[C@@H]2CCCCN2C1=O [vioprolide A]
NOP14 protein expression in L4-L5 DRGs: did not detect altered expression of NOP14; also recorded: no change in NOP14 protein expression
